# Experimental data: the supplement of paper PMC8728848
# The list shows a part of the results.
# Legend:
# Test in all cases: glycan array binding signal (z-score within array); higher = stronger binding
# Conditions in all cases: glycan notation: IUPAC condensed, linker removed
# Glc(b1-4)Glc = biological target: Glc(b1-4)Glc
# In short: (§1)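 Glycan array data were curated from 3228 arrays in the Consortium for Functional Glycomics database and kept only where the protein sequence was available. Glycan names were converted to IUPAC-condensed notation, and columns mapping to the same glycan were averaged. The binding signal is a within-array Z-score, averaged across arrays of the same protein sequence at different concentrations or buffers and across linkers. Negative Z-scores can be read as non-binding.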
# Glc(b1-6)Glc = biological target: Glc(b1-6)Glc
# In short: as §1
# GlcA(b1-3)Gal = biological target: GlcA(b1-3)Gal
# In short: as §1
# GlcA(b1-3)GlcNAc = biological target: GlcA(b1-3)GlcNAc
# In short: as §1
# GlcA(b1-6)Gal = biological target: GlcA(b1-6)Gal
# In short: as §1
# [1] = biological target: GlcA3S(b1-3)Gal(b1-4)GlcNAc(b1-2)Man
# In short: as §1
# [2] = biological target: GlcA3S(b1-3)Gal(b1-4)GlcNAc(b1-3)Gal(b1-4)Glc
# In short: as §1
# [3] = biological target: GlcNAc(a1-3)Gal(b1-4)GlcNAc
# In short: as §1
# [4] = biological target: GlcNAc(a1-4)Gal(b1-3)GlcNAc
# In short: as §1
# [5] = biological target: GlcNAc(a1-4)Gal(b1-4)GalNAc
# In short: as §1
# [6] = biological target: GlcNAc(a1-4)Gal(b1-4)GlcNAc
# In short: as §1
# [7] = biological target: GlcNAc(a1-4)Gal(b1-4)GlcNAc(b1-3)Gal(b1-4)Glc
# In short: as §1
# [8] = biological target: GlcNAc(a1-4)Gal(b1-4)GlcNAc(b1-3)Gal(b1-4)GlcNAc
# In short: as §1
# [9] = biological target: GlcNAc(a1-4)Gal(b1-4)GlcNAc(b1-3)Gal(b1-4)GlcNAc(b1-3)Gal(b1-4)GlcNAc
# In short: as §1
# [10] = biological target: GlcNAc(a1-4)Gal(b1-4)GlcNAc(b1-3)Gal(b1-4)[Fuc(a1-3)]GlcNAc(b1-3)Gal(b1-4)[Fuc(a1-3)]GlcNAc
# In short: as §1
# [11] = biological target: GlcNAc(a1-6)Gal(b1-4)GlcNAc
# In short: as §1
# [12] = biological target: GlcNAc(b1-2)Gal(b1-3)GalNAc
# In short: as §1
# [13] = biological target: GlcNAc(b1-2)Man(a1-3)[GlcNAc(b1-2)Man(a1-6)]Man(b1-4)GlcNAc(b1-4)GlcNAc
# In short: as §1
# [14] = biological target: GlcNAc(b1-2)Man(a1-3)[GlcNAc(b1-2)Man(a1-6)]Man(b1-4)GlcNAc(b1-4)[Fuc(a1-6)]GlcNAc
# In short: as §1
# [15] = biological target: GlcNAc(b1-2)Man(a1-3)[GlcNAc(b1-4)][GlcNAc(b1-2)Man(a1-6)]Man(b1-4)GlcNAc(b1-4)GlcNAc
# In short: as §1
# [16] = biological target: GlcNAc(b1-2)Man(a1-3)[GlcNAc(b1-4)][GlcNAc(b1-2)Man(a1-6)]Man(b1-4)GlcNAc(b1-4)[Fuc(a1-6)]GlcNAc
# In short: as §1
# [17] = biological target: GlcNAc(b1-2)[GlcNAc(b1-4)]Man(a1-3)[GlcNAc(b1-2)Man(a1-6)]Man(b1-4)GlcNAc(b1-4)GlcNAc
# In short: as §1
# [18] = biological target: GlcNAc(b1-2)[GlcNAc(b1-4)]Man(a1-3)[GlcNAc(b1-4)][GlcNAc(b1-2)Man(a1-6)]Man(b1-4)GlcNAc(b1-4)GlcNAc
# In short: as §1
# [19] = biological target: GlcNAc(b1-2)[GlcNAc(b1-4)]Man(a1-3)[GlcNAc(b1-4)][GlcNAc(b1-2)[GlcNAc(b1-6)]Man(a1-6)]Man(b1-4)GlcNAc(b1-4)GlcNAc
# In short: as §1
# [20] = biological target: GlcNAc(b1-2)[GlcNAc(b1-4)]Man(a1-3)[GlcNAc(b1-4)][GlcNAc(b1-2)[GlcNAc(b1-6)]Man(a1-6)]Man(b1-4)GlcNAc(b1-4)[Fuc(a1-6)]GlcNAc
# In short: as §1
# [21] = biological target: GlcNAc(b1-2)[GlcNAc(b1-6)]Man(a1-6)[GlcNAc(b1-2)Man(a1-3)]Man(b1-4)GlcNAc(b1-4)GlcNAc
# In short: as §1
# [22] = biological target: GlcNAc(b1-2)[GlcNAc(b1-6)]Man(a1-6)[GlcNAc(b1-2)Man(a1-3)]Man(b1-4)GlcNAc(b1-4)[Fuc(a1-6)]GlcNAc
# In short: as §1
# [23] = biological target: GlcNAc(b1-2)[GlcNAc(b1-6)]Man(a1-6)[GlcNAc(b1-4)][GlcNAc(b1-2)Man(a1-3)]Man(b1-4)GlcNAc(b1-4)GlcNAc
# In short: as §1
# GlcNAc(b1-3)Fuc = biological target: GlcNAc(b1-3)Fuc
# In short: as §1
# GlcNAc(b1-3)Gal = biological target: GlcNAc(b1-3)Gal
# In short: as §1
# [24] = biological target: GlcNAc(b1-3)Gal(b1-3)GalNAc
# In short: as §1
# GlcNAc(b1-3)Gal(b1-4)Glc = biological target: GlcNAc(b1-3)Gal(b1-4)Glc
# In short: as §1
# [25] = biological target: GlcNAc(b1-3)Gal(b1-4)GlcNAc
# In short: as §1
# [26] = biological target: GlcNAc(b1-3)Gal(b1-4)GlcNAc(b1-2)Man(a1-3)[GlcNAc(b1-3)Gal(b1-4)GlcNAc(b1-2)Man(a1-6)]Man(b1-4)GlcNAc(b1-4)GlcNAc
# In short: as §1
# [27] = biological target: GlcNAc(b1-3)Gal(b1-4)GlcNAc(b1-2)Man(a1-3)[GlcNAc(b1-3)Gal(b1-4)GlcNAc(b1-2)Man(a1-6)]Man(b1-4)GlcNAc(b1-4)[Fuc(a1-6)]GlcNAc
# In short: as §1
# [28] = biological target: GlcNAc(b1-3)Gal(b1-4)GlcNAc(b1-2)[GlcNAc(b1-3)Gal(b1-4)GlcNAc(b1-6)]Man(a1-6)[GlcNAc(b1-3)Gal(b1-4)GlcNAc(b1-2)Man(a1-3)]Man(b1-4)GlcNAc(b1-4)GlcNAc
# In short: as §1
# [29] = biological target: GlcNAc(b1-3)Gal(b1-4)GlcNAc(b1-3)Gal(b1-4)GlcNAc
# In short: as §1
# [30] = biological target: GlcNAc(b1-3)Gal(b1-4)GlcNAc(b1-3)Gal(b1-4)GlcNAc(b1-2)Man(a1-3)[GlcNAc(b1-3)Gal(b1-4)GlcNAc(b1-3)Gal(b1-4)GlcNAc(b1-2)Man(a1-6)]Man(b1-4)GlcNAc(b1-4)GlcNAc
# In short: as §1
# [31] = biological target: GlcNAc(b1-3)Gal(b1-4)GlcNAc(b1-3)Gal(b1-4)GlcNAc(b1-2)Man(a1-3)[GlcNAc(b1-3)Gal(b1-4)GlcNAc(b1-3)Gal(b1-4)GlcNAc(b1-2)Man(a1-6)]Man(b1-4)GlcNAc(b1-4)[Fuc(a1-6)]GlcNAc
# In short: as §1
# [32] = biological target: GlcNAc(b1-3)Gal(b1-4)GlcNAc(b1-3)Gal(b1-4)GlcNAc(b1-2)[GlcNAc(b1-3)Gal(b1-4)GlcNAc(b1-3)Gal(b1-4)GlcNAc(b1-6)]Man(a1-6)[GlcNAc(b1-3)Gal(b1-4)GlcNAc(b1-3)Gal(b1-4)GlcNAc(b1-2)Man(a1-3)]Man(b1-4)GlcNAc(b1-4)[Fuc(a1-6)]GlcNAc
# In short: as §1
# [33] = biological target: GlcNAc(b1-3)Gal(b1-4)GlcNAc(b1-3)Gal(b1-4)GlcNAc(b1-3)Gal(b1-4)GlcNAc(b1-2)Man(a1-3)[GlcNAc(b1-3)Gal(b1-4)GlcNAc(b1-3)Gal(b1-4)GlcNAc(b1-3)Gal(b1-4)GlcNAc(b1-2)Man(a1-6)]Man(b1-4)GlcNAc(b1-4)GlcNAc
# In short: as §1
# [34] = biological target: GlcNAc(b1-3)Gal(b1-4)GlcNAc(b1-3)Gal(b1-4)GlcNAc(b1-3)Gal(b1-4)GlcNAc(b1-2)Man(a1-3)[GlcNAc(b1-3)Gal(b1-4)GlcNAc(b1-3)Gal(b1-4)GlcNAc(b1-3)Gal(b1-4)GlcNAc(b1-2)Man(a1-6)]Man(b1-4)GlcNAc(b1-4)[Fuc(a1-6)]GlcNAc
# In short: as §1
# [35] = biological target: GlcNAc(b1-3)Gal(b1-4)GlcNAc(b1-3)Gal(b1-4)GlcNAc(b1-3)Gal(b1-4)GlcNAc(b1-2)[GlcNAc(b1-3)Gal(b1-4)GlcNAc(b1-3)Gal(b1-4)GlcNAc(b1-3)Gal(b1-4)GlcNAc(b1-6)]Man(a1-6)[GlcNAc(b1-3)Gal(b1-4)GlcNAc(b1-3)Gal(b1-4)GlcNAc(b1-3)Gal(b1-4)GlcNAc(b1-2)Man(a1-3)]Man(b1-4)GlcNAc(b1-4)[Fuc(a1-6)]GlcNAc
# In short: as §1
# [36] = biological target: GlcNAc(b1-3)Gal(b1-4)GlcNAc(b1-3)Gal(b1-4)GlcNAc(b1-3)Gal(b1-4)GlcNAc(b1-3)Gal(b1-4)GlcNAc(b1-2)Man(a1-3)[GlcNAc(b1-3)Gal(b1-4)GlcNAc(b1-3)Gal(b1-4)GlcNAc(b1-3)Gal(b1-4)GlcNAc(b1-3)Gal(b1-4)GlcNAc(b1-2)Man(a1-6)]Man(b1-4)GlcNAc(b1-4)GlcNAc
# In short: as §1
# [37] = biological target: GlcNAc(b1-3)Gal(b1-4)GlcNAc(b1-3)Gal(b1-4)GlcNAc(b1-3)Gal(b1-4)GlcNAc(b1-3)Gal(b1-4)GlcNAc(b1-2)Man(a1-3)[GlcNAc(b1-3)Gal(b1-4)GlcNAc(b1-3)Gal(b1-4)GlcNAc(b1-3)Gal(b1-4)GlcNAc(b1-3)Gal(b1-4)GlcNAc(b1-2)Man(a1-6)]Man(b1-4)GlcNAc(b1-4)[Fuc(a1-6)]GlcNAc
# In short: as §1
binder,measurement,setting,value
BIp1-His (Cryptococcus neoformans) (protein) MFTKIFVALFAATAVLSAPVESAEKRITHTGRATFYSPSVGIGACGWQNTDEELVVALNAPQYALNADHNCGQSVRITNEQNGNQEIAKVVDLCPGCNDGDLDMSPALFGALNNNDFDQGVFPISWNFLPRDDTSSSN,glycan array binding signal (z-score),Glc(b1-4)Glc,-0.852
same,glycan array binding signal (z-score),Glc(b1-6)Glc,-0.14
same,glycan array binding signal (z-score),GlcA(b1-3)Gal,-0.254
same,glycan array binding signal (z-score),GlcA(b1-3)GlcNAc,-0.499
same,glycan array binding signal (z-score),GlcA(b1-6)Gal,-0.416
same,glycan array binding signal (z-score),[1],-0.207
same,glycan array binding signal (z-score),[2],-0.183
same,glycan array binding signal (z-score),[3],0.188
same,glycan array binding signal (z-score),[4],-0.318
same,glycan array binding signal (z-score),[5],-1.12
same,glycan array binding signal (z-score),[6],-0.708
same,glycan array binding signal (z-score),[7],0.045
same,glycan array binding signal (z-score),[8],-0.297
same,glycan array binding signal (z-score),[9],-0.512
same,glycan array binding signal (z-score),[10],2.19
same,glycan array binding signal (z-score),[11],-0.844
same,glycan array binding signal (z-score),[12],0.228
same,glycan array binding signal (z-score),[13],-0.765
same,glycan array binding signal (z-score),[14],0.606
same,glycan array binding signal (z-score),[15],0.434
same,glycan array binding signal (z-score),[16],0.086
same,glycan array binding signal (z-score),[17],-0.256
same,glycan array binding signal (z-score),[18],0.058
same,glycan array binding signal (z-score),[19],-0.2
same,glycan array binding signal (z-score),[20],-0.309
same,glycan array binding signal (z-score),[21],1.22
same,glycan array binding signal (z-score),[22],0.324
same,glycan array binding signal (z-score),[23],-0.11
same,glycan array binding signal (z-score),GlcNAc(b1-3)Fuc,0.977
same,glycan array binding signal (z-score),GlcNAc(b1-3)Gal,-0.699
same,glycan array binding signal (z-score),[24],0.752
same,glycan array binding signal (z-score),GlcNAc(b1-3)Gal(b1-4)Glc,-0.658
same,glycan array binding signal (z-score),[25],-0.471
same,glycan array binding signal (z-score),[26],-0.301
same,glycan array binding signal (z-score),[27],0.929
same,glycan array binding signal (z-score),[28],1.14
same,glycan array binding signal (z-score),[29],0.094
same,glycan array binding signal (z-score),[30],1.87
same,glycan array binding signal (z-score),[31],1.5
same,glycan array binding signal (z-score),[32],2.23
same,glycan array binding signal (z-score),[33],2.51
same,glycan array binding signal (z-score),[34],3.44
same,glycan array binding signal (z-score),[35],1.41
same,glycan array binding signal (z-score),[36],1.13
same,glycan array binding signal (z-score),[37],1.04

# Two entries from above, with tabs:
binder	measurement	setting	value
BIp1-His (Cryptococcus neoformans) (protein) MFTKIFVALFAATAVLSAPVESAEKRITHTGRATFYSPSVGIGACGWQNTDEELVVALNAPQYALNADHNCGQSVRITNEQNGNQEIAKVVDLCPGCNDGDLDMSPALFGALNNNDFDQGVFPISWNFLPRDDTSSSN	glycan array binding signal (z-score)	GlcA(b1-6)Gal	-0.416
same	glycan array binding signal (z-score)	[30]	1.87
